# Test results: PubChem BioAssay AID743255 (National Center for Advancing Translational Sciences (NCATS), 2014)
# Chains of the proteins cited; added tags and fusions are not shown. Lines headed by an entry give the natural chain unless they say otherwise; changes in a name come on top.
# UniProt O94782: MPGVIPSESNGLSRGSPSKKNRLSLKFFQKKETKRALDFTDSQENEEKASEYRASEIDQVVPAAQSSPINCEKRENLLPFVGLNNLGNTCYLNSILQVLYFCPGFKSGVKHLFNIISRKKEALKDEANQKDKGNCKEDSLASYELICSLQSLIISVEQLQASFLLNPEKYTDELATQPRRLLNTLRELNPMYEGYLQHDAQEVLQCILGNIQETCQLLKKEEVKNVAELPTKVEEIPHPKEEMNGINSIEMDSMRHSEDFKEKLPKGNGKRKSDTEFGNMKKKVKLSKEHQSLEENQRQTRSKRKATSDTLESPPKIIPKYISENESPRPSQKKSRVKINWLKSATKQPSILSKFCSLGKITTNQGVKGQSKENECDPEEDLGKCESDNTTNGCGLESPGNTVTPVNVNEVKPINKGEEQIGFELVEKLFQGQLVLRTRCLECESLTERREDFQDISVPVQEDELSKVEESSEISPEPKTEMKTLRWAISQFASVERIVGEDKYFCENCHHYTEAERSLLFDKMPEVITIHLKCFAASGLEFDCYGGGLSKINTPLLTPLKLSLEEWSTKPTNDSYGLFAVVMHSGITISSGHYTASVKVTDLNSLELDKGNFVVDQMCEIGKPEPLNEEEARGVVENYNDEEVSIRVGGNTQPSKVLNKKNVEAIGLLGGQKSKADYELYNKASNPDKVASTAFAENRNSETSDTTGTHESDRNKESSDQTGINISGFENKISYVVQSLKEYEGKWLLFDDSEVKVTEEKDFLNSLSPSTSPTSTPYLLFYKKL
# Values joined by “and” are separate entries in the source; they are usually repeats but may differ in a detail not shown here. Identical values can stand only once. In all, about 390,000 compounds went through this assay and about 910 (0.23%) were called active. Inconclusive results, whose numbers are uncertain, are shown with a selection of clear calls. Calls follow the shape of the dose curve; as a rule, active = well fitted inhibition curve with a large enough effect; inconclusive = small, poorly fitted or top-dose-only effect; inactive = no such curve, though single readings can be large or run the other way. Potencies of inconclusive entries are doubtful fits and often do not repeat.
# Target: Ubiquitin carboxyl-terminal hydrolase 1 (Homo sapiens) (UniProt O94782)
# Assay: Inhibitors of USP1/UAF1: Primary Screen; also: nearly all actives have a fitted effect of over 60% in size
# Settings: recombinant USP1/UAF1, Ub-Rhodamine cleavage fluorescence; series mostly up to 57.1 µM
# In short: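 USP1/UAF1 complex (1 nM) preincubated 15 min at room temperature with compound, then Ub-Rho substrate (150 nM final) added. Kinetic fluorescence at 480/540 nm over 6 reads at 60 s intervals; 50 mM HEPES pH 7.8, 0.5 mM EDTA, 0.1 mg/ml BSA, 1 mM TCEP, 0.01% Tween-20.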
# Potency is read from the fitted curve at half-maximal effect.
row,SMILES,Potency
1,COc1ccc(OC)c(NC(=O)Cn2c(=O)n(CC3CCCO3)c(=O)c3cc(OC)c(OC)cc32)c1 (stereo unspecified),"inconclusive: 316 µM [inhibitor, partial curve, poor fit] and inconclusive: 31.6 µM [inhibitor, single point]"
2,CCc1ccc(CNC(=O)c2cc3c(=O)n(CC)c4ccccc4c3s2)cc1,inactive
3,COC(=O)CCCC1=CC2=C(c3ccccc3)C(=O)C(C)(OC(=O)C3CCCC3)C(=O)C2=CN1CCc1c[nH]c2ccccc12 (stereo unspecified),"inconclusive: 0.0794 µM [inhibitor, full curve, poor fit]"
4,CCN1N=C(c2ccccc2)Cn2c1nc1ccccc12,inactive
5,CCCCn1c(=N)c(S(=O)(=O)c2ccc(Cl)cc2)cc2c(=O)n3cccc(C)c3nc21,"inconclusive: 0.251 µM [inhibitor, full curve, poor fit]"
6,O=C(CCSCc1ccccc1Cl)NCc1ccco1,inactive
7,COc1ccc(C)cc1NC(=O)Cn1c(=O)nc(-c2ccccc2F)c2cc(Cl)ccc21,inactive
8,CCOC(=O)[C@H]1[C@H]2COc3ccc(Br)cc3[C@@H]2N2C(=O)c3ccc(C)cc3NC(=O)[C@@]12C,"inconclusive: 44.7 µM [inhibitor, partial curve, poor fit]"
9,CCOc1ccccc1NC(=O)C(c1ccccc1)N1CCN(CC(=O)N2CCOCC2)CC1 (stereo unspecified),inactive
10,COc1cc2c(cc1NC(=S)Nc1cccc(C(F)(F)F)c1)oc1ccccc12,"inconclusive: 56.2 µM [inhibitor, partial curve, poor fit]"
11,CCOc1cc(N2CCOCC2)c(OCC)cc1NC(=O)COC(=O)c1ccc([N+](=O)[O-])o1,"inconclusive: 35.5 µM [inhibitor, partial curve]"
12,CCN1C(=O)c2cccc3c(NC(=O)c4ccc5c(c4)OCCO5)ccc1c23,"inconclusive: 44.7 µM [inhibitor, single point]"
13,CC1(C)[C@@H](O)CC[C@]2(C)C3C(O)C=C4[C@H]5C[C@@](C)(CO)CC[C@]5(C)CC[C@]4(C)[C@]3(C)CC[C@@H]12 (stereo partly specified),inactive
14,COc1ccc(NC(=O)Nc2c[nH]c(=O)[nH]c2=O)cc1,"inconclusive: 1.78 µM [inhibitor, full curve, poor fit]"
15,C=CC[C@H](CC(=O)N(CCO)Cc1ccccc1)C(=O)N[C@@H](C)COC(=O)[C@H](CC=C)CC(=O)OC(C)(C)C,inactive
16,C=CCOc1ccc(C=NNc2ccc(S(=O)(=O)Nc3ccccc3C(=O)O)cc2[N+](=O)[O-])cc1OC,"inconclusive: 35.5 µM [inhibitor, single point]"
